The values below come from PubChem BioAssay AID330 (DTP/NCI, 2004).

The list does not hold the whole screen: it is rich in T/C values a quarter to a half above the control, in often repeated tests (any T/C) and in doses without a T/C. Further doses and runs are listed elsewhere. T/C: endpoint of the treated group in % of that of the vehicle group. Some entries give survivors of the animals treated and no T/C: the source holds a T/C of zero for them, seemingly a mark for toxic or unscored doses. Some survivor counts are full or nearly so, which does not show that the dose was tolerated: the source hardly ever lists a survival T/C far under the control, and the zero likely stands for such cases as well. Survivors were counted at the toxicity check, usually on the fifth day, unless a day is given; later deaths do not show. Schedule codes are those of the source, taken here to give the interval after Q, in days (D) or hours (H), and the number of doses after X. Some entries were tested several times; the results are listed from low to high. For survival time, this PubChem deposit counts one and a half times the control or more as active, and values a quarter to a half above the control carry no call in these data; other NCI protocols may use other cut-offs. Some T/C values carry the count of animals alive at the toxicity check (mostly the fifth day); where none is given, no animal had died by that day.

This experiment relates to P388 leukemia ip, CD2F1 mice, survival T/C. Briefly: NCI In Vivo Anticancer Drug Screen. Data for tumor model P388 Leukemia (intraperitoneal) in CD2F1 (CDF1) mice. The following applies: T/C endpoint: median survival time, higher T/C = longer survival.
Where [1] appears, read: dose: 200.0 mg/kg/injection, schedule: Q01DX009 (ip), vehicle: suspension in saline.
Where [2] appears, read: dose: 25.0 mg/kg/injection, schedule: Q01DX009 (ip), vehicle: water.
Where [3] appears, read: dose: 100.0 mg/kg/injection, schedule: Q01DX009 (ip), vehicle: saline with Tween-80.
[4] abbreviates: dose: 200.0 mg/kg/injection, schedule: Q01DX009 (ip), vehicle: saline with Tween-80.
[5] abbreviates: dose: 50.0 mg/kg/injection, schedule: Q01DX005 (ip), vehicle: Klucel (hydroxypropylcellulose) (HPC).
Setting [6] is: dose: 200.0 mg/kg/injection, schedule: Q01DX005 (ip), vehicle: Klucel (hydroxypropylcellulose) (HPC).
Setting [7] is: dose: 200.0 mg/kg/injection, schedule: Q01DX009 (ip), vehicle: saline.
[8] abbreviates: dose: 50.0 mg/kg/injection, schedule: Q01DX005 (ip), vehicle: saline with Tween-80.
Setting [9] is: dose: 200.0 mg/kg/injection, schedule: Q01DX005 (ip), vehicle: saline with Tween-80.
Setting [10] is: dose: 50.0 mg/kg/injection, schedule: Q01DX009 (ip), vehicle: Klucel (hydroxypropylcellulose) (HPC).
Where [11] appears, read: dose: 200.0 mg/kg/injection, schedule: Q01DX009 (ip), vehicle: Klucel (hydroxypropylcellulose) (HPC).
Where [12] appears, read: dose: 100.0 mg/kg/injection, schedule: Q01DX005 (ip), vehicle: saline with Tween-80.

For the compound `CN1C(=O)NC(c2ccc(Cl)cc2)(c2ccc(Cl)cc2)C1=O`, the T/C (dose: 100.0 mg/kg/injection, schedule: Q04DX003 (ip), vehicle: other) is 133 % of control and the T/C (dose: 200.0 mg/kg/injection, schedule: Q04DX003 (ip), vehicle: other) is 129 % of control. The survivor count (dose: 400.0 mg/kg/injection, schedule: Q04DX003 (ip), vehicle: other) is 3 of 6.

For the compound `O=C(O)c1cc(=O)c2c(OCC(O)COc3cccc4oc(C(=O)O)cc(=O)c34)cccc2o1.[Cu+2]`, the survivor count is reported as 6 of 6 (dose: 100.0 mg/kg/injection, schedule: Q04DX002 (ip), vehicle: Klucel (hydroxypropylcellulose) (HPC)); 6 of 6 (dose: 200.0 mg/kg/injection, schedule: Q04DX002 (ip), vehicle: Klucel (hydroxypropylcellulose) (HPC)); 4 of 6 (dose: 400.0 mg/kg/injection, schedule: Q04DX002 (ip), vehicle: Klucel (hydroxypropylcellulose) (HPC)).

With `CC(C)c1ccc(C2NC(C(=O)O)CS2)cc1` (stereo not given), under setting [1], the survivor count was 6 of 6.

As for `Cc1cc(=O)oc2c(CNC(C(=O)O)C(C)C)c(O)ccc12` (stereo not given), where the note is “dose: 240.0 mg/kg/injection, schedule: Q01DX005 (ip), vehicle: Klucel (hydroxypropylcellulose) (HPC)”, the survivor count was 0 of 6.

For the compound `O=NNc1nc2ncccc2cc1-c1ccccc1Cl`, the T/C is, setting by setting: (dose: 6.25 mg/kg/injection, schedule: Q01DX009 (ip), vehicle: water) 133 and 141 % of control; (dose: 12.5 mg/kg/injection, schedule: Q01DX009 (ip), vehicle: water) 132 % of control; under setting [2], 132 % of control. For the same compound, where the note is “dose: 50.0 mg/kg/injection, schedule: Q01DX009 (ip), vehicle: water”, the survivor count was 5 of 6 and 6 of 6.

As for `CCCCCCCCCCCCCC(=O)OCCN1CCN(CCCN2c3ccccc3Sc3ccc(C(F)(F)F)cc32)CC1`, the survivor count (dose: 50.0 mg/kg/injection, schedule: Q01DX009 (ip), vehicle: saline with Tween-80) is reported as 6 of 6; the survivor count under setting [3] is reported as 1 of 6; the survivor count under setting [4] is reported as 0 of 6.

Regarding `Oc1ccccc1-c1cc(-c2ccccc2)nc(NCCCCNc2nc(-c3ccccc3)cc(-c3ccccc3O)n2)n1`, the survivor count was 6 of 6 under setting [5] and 0 of 6 under setting [6].

Take `Cc1cc(C)n(-c2nnc(-n3nc(C)cc3C)c3ccccc23)n1`: the survivor count under setting [7] is 6 of 6.

Turning to `N#CC(CC[N+](=O)[O-])(c1ccccc1)C(c1ccccc1)[N+](=O)[O-]` (stereo not given), the survivor count (dose: 50.0 mg/kg/injection, schedule: Q01DX001 (ip), vehicle: saline with Tween-80) is 4 of 6.

On to `COc1cccc2c1C(=O)c1c(O)c3c(c(O)c1C2=O)C[C@@](O)(/C(C)=N\NC(N)=O)C[C@@H]3OC1CC(N)C(O)C(C)O1` (stereo not given in full), for which, under “dose: 3.12 mg/kg/injection, schedule: Q01DX009 (ip), vehicle: saline”, the T/C is 149 % of control. The survivor count (dose: 25.0 mg/kg/injection, schedule: Q01DX009 (ip), vehicle: saline) was 6 of 6 and the survivor count (dose: 50.0 mg/kg/injection, schedule: Q01DX009 (ip), vehicle: saline) is reported as 2 of 6.

With `CN(Cc1ccccc1)N=NCc1ccccc1`, the T/C under setting [8] is 125 % of control. Besides, the survivor count under setting [9] is 0 of 6.

In the case of `Cc1nc(Cl)c(C)c(=O)[nH]1`, the survivor count under setting [7] is reported as 0 of 6.

Turning to `Cc1ccc(N2CCN(C(=O)C3=Cc4ccccc4OC3)CC2)cc1C`, the survivor count (dose: 400.0 mg/kg/injection, schedule: Q04DX003 (ip), vehicle: Klucel (hydroxypropylcellulose) (HPC)) is recorded as 1 of 6.

As for `S=C(Nc1ccc(Cl)cc1)SSC(Cl)(Cl)Cl`, the survivor count is on record as 6 of 6 (dose: 100.0 mg/kg/injection, schedule: Q01DX009 (ip), vehicle: saline + alcohol) and 0 of 6 (dose: 200.0 mg/kg/injection, schedule: Q01DX009 (ip), vehicle: saline + alcohol).

With `Fc1ccc(NC(=S)SCc2ccc(Cl)c(Cl)c2)cc1F`, the T/C runs as follows: (dose: 25.0 mg/kg/injection, schedule: Q01DX009 (ip), vehicle: Klucel (hydroxypropylcellulose) (HPC)) 133 % of control; under setting [10], 128 and 133 % of control. In addition, the survivor count is given as 0 of 6 under setting [11] and 0 of 6 (dose: 400.0 mg/kg/injection, schedule: Q01DX009 (ip), vehicle: Klucel (hydroxypropylcellulose) (HPC)).

Consider `Cc1c2cc[n+](C)cc2c(C)c2c1[nH]c1ccc(O)c(-[n+]3ccccc3)c12`, for which, for the setting “dose: 10.0 mg/kg/injection, schedule: Q04DX003 (ip), vehicle: saline”, the T/C is 134 % of control.

`CC(=O)c1ccccc1N=Nc1ccc(N(CCCl)CCCl)cc1C`: the T/C under setting [3] was 126 % of control and the T/C under setting [4] is 131 % of control [5 of 6 alive].

As for `CCN(CC)CCCC(C)Nc1c2ccc(Cl)cc2nc2cc(N=Nc3cccc4ccccc34)c(OC)cc12` (stereo not given), the survivor count is, setting by setting: (dose: 100.0 mg/kg/injection, schedule: Q04DX003 (ip), vehicle: saline with Tween-80) 4 of 6; (dose: 200.0 mg/kg/injection, schedule: Q04DX003 (ip), vehicle: saline with Tween-80) 1 of 6; (dose: 400.0 mg/kg/injection, schedule: Q04DX003 (ip), vehicle: saline with Tween-80) 0 of 6.

Take `COc1ccc2cc1Oc1ccc(cc1)C[C@H]1c3cc(c(OC)cc3CCN1C)Oc1c(O)c(OC)cc3c1[C@H](C2)N(C)CC3`: the survivor count under setting [1] is on record as 6 of 6 and the survivor count (dose: 400.0 mg/kg/injection, schedule: Q01DX009 (ip), vehicle: suspension in saline) is given as 2 of 6.

In the case of `O=C(N/C=C/c1ccco1)NC1CCCCCCCCCCC1`, the survivor count under setting [5] is reported as 4 of 5; the survivor count (dose: 100.0 mg/kg/injection, schedule: Q01DX005 (ip), vehicle: Klucel (hydroxypropylcellulose) (HPC)) is given as 5 of 5; the survivor count under setting [6] is 1 of 5.

On to `COc1cc(C2=N/C(=C/c3cccs3)C(=O)O2)cc(OC)c1OC`, for which the survivor count runs as follows: under setting [10], 6 of 6; (dose: 100.0 mg/kg/injection, schedule: Q01DX009 (ip), vehicle: Klucel (hydroxypropylcellulose) (HPC)) 5 of 6; under setting [11], 6 of 6.

Regarding `C=C(Br)S(=O)(=O)OCCCl`, the survivor count is, setting by setting: (dose: 25.0 mg/kg/injection, schedule: Q01DX005 (ip), vehicle: saline with Tween-80) 0 of 6; under setting [8], 0 of 6; under setting [12], 0 of 6; under setting [9], 0 of 6.

Regarding `CCCCN1CCC(CNc2ccnc3cc(Cl)ccc23)C1` (stereo not given), the survivor count under setting [12] is on record as 0 of 6 and the survivor count under setting [9] is reported as 0 of 6.

Turning to `CN(C)[C@@H]1C(=O)C(C(N)=O)=C(O)[C@@]2(O)C(=O)C3=C(O)c4c(O)cccc4C[C@H]3C[C@@H]12`, the T/C (dose: 30.0 mg/kg/injection, schedule: Q01DX010 (ip), vehicle: saline) is 125 % of control [5 of 6 alive]. For the same compound, the survivor count (dose: 60.0 mg/kg/injection, schedule: Q01DX010 (ip), vehicle: saline) is 4 of 6.

As for `COc1cc2c(cc1-c1coc3cc4occc4cc3c1=O)OCO2`, the survivor count (dose: 17.5 mg/kg/injection, schedule: Q01DX005 (ip), vehicle: saline with Tween-80) is given as 6 of 6.

Take `CC(C)[C@](O)(C(=O)OCC1=CCN2CC[C@@H](O)[C@@H]12)[C@H](C)O`: the T/C is, setting by setting: under setting [2], 128 % of control; (dose: 400.0 mg/kg/injection, schedule: Q01DX009 (ip), vehicle: water) 128 and 133 % of control [5 of 6 alive]. The survivor count reads like this: (dose: 800.0 mg/kg/injection, schedule: Q01DX009 (ip), vehicle: saline) 0 of 6; (dose: 800.0 mg/kg/injection, schedule: Q01DX009 (ip), vehicle: water) 0 of 6; (dose: 1600.0 mg/kg/injection, schedule: Q01DX009 (ip), vehicle: distilled water + Tween-80) 0 of 6.
